The target in the assay is mNeonGreen::PAR-3, endogenously tagged (C. elegans) (UniProt Q17353). The assay can be described thus: particle tracking with intensities calibrated to single molecules.

Results are given in words; binding and its absence hold for the method and conditions named. Some binding calls cover weakened binding; strength is not graded here. Where a sequence is shown, tags or fusion partners need not be part of it.

B1: mNeonGreen::PAR-3, endogenously tagged (protein, UniProt Q17353 1-1379)
chain: MSASSTSSSSTSCPEGGEPSGSCKSSDEGESTLKKRMQQYGIASGYANSSISTLDRSQYQSLPLNGTRRVTVQFGRMKIVVPWKESDQTVGQLADAALLRYKKARGMANEDRIHVHRLECASDGGILDMDDVLEEVFDLNYDQILAITDEANGGSTTPTYSQIQKQQHHYAQPLPYARKFDGGPSTPIASAFGSVTVNHQAHRAASPYNVGFARSNSRDFAPQPTHSKERRDSVVEVSSFDQIPQSGLRVSTPKPSRQSEDVIDGKPMNQPILRSSLRTEASGSRTEEATPVKQSRVTLSPEVEKKLAEQDERKSERRKHYDKNPGRFARGSDRKSRITDALLDARDRIADQLESQNPAEETKSQMIRVKIDQGPMPGTSLVTFPPIPEKSENEKQLGIEVNAVFDESSELPGTSEPTKLSSVQIMKIEDGGRIAKDGRIRVGDCIVAIDGKPVDQMSIIRVRASISDLAAVTSRPVTLIINRSLESFLEQESSAKPIQSALQQANTQYIGHTTVVELIKSSNGFGFTVTGRETAKGERLFYIGTVKPYGVALGHLKSGDRLLEINGTPTGQWTQSEIVEKLKETMVGEKIKFLVSRVSQSAIMSTSASSENKENEETLKVVEEEKIPQKLPLPALMTPPVPKDTPALSPSGASRFEIVIPFINGSSSAGLGVSLKARVSKKSNGSKVDCGIFIKNVMHGGAAFKEGGLRVDDRIVGVEDIDLEPLDNREAQAALAKKLKEVGMISSNVRLTISRYNECNPGQISRDLSRITVDASSPSPSSRMSSHTAPDSLLPSPATRGTSSSGADSSHSRQSSASSAVPAVPARLTERDSIVSDGTSRNDESELPDSADPFNREGLGRKSLSEKRGMGAAADPQHIKLFQDIKHQRQNSAPTSSTQKRSKSQPRSSSQRNYRSPMKLVDLPTTAAASASTNSQNLDDSDMLNRRSQSMESINRPVESILRGTGQIPTGSSSKVQFMQAASPDQHPFPPGAALLRLKNEESRSRDKSRRKSMGNPFSAMRNFFGFGSKSRDASPEKTPTESVQLRSVERPKSIIDERNNGSSERAPPPLPPHQSQRRGSGGNVFVDYGEPYGLIPQYPHNTTSGYESYADSELYDRYAAHRYHPRGGPIIDEDEYIYRQQSTSGNSPINTSSYVNYGLPASNAYHVGSRIPPQTSSGSISKTSGAMRRVYPAEYDEDVAYHQQIPQQSTRYQQGSGSGRGNADYHHMFNSWFAYTGGGAVGAAPVIKSSYGSSPVRIAAASAIERGESFVVEPVSGSSASATDRRGRSTSSGAVASGSSSTGFQYAAKEKYADARSGKFNGGSTRLFIPRHGGGLSAAAFATNFGGEAYETRGGGAGGSPSQYRRRDQGPPHRFPQY
For B1, the binding result is “binds”.
